In article PMC6917717:
Results are given in words; binding and its absence hold for the method and conditions named.

Target: YtfK, purified, biotinylated (E. coli) (UniProt P0ADE2)
Test: BLI; biotinylated YtfK (2.5 µM) on streptavidin biosensors; SpoT1-378 (5-80 µM) or RelA1-396 (40-120 µM) as analyte; BLItz, 25 °C; 50 mM Tris-HCl pH 8.0, 500 mM NaCl, 500 mM KCl, 2 mM β-mercaptoethanol, glycerol 2%, BSA 1 mg/ml; KD estimated from responses 10 s before the end of association, one-site fit; both purified

binding: no binding (tested: 40 to 120 µM)
B1: RelA catalytic domains (RelA^1-396) (domain or fragment, UniProt P0AG20 1-396)
chain: MVAVRSAHINKAGEFDPEKWIASLGITSQKSCECLAETWAYCLQQTQGHPDASLLLWRGVEMVEILSTLSMDIDTLRAALLFPLADANVVSEDVLRESVGKSVVNLIHGVRDMAAIRQLKATHTDSVSSEQVDNVRRMLLAMVDDFRCVVIKLAERIAHLREVKDAPEDERVLAAKECTNIYAPLANRLGIGQLKWELEDYCFRYLHPTEYKRIAKLLHERRLDREHYIEEFVGHLRAEMKAEGVKAEVYGRPKHIYSIWRKMQKKNLAFDELFDVRAVRIVAERLQDCYAALGIVHTHYRHLPDEFDDYVANPKPNGYQSIHTVVLGPGGKTVEIQIRTKQMHEDAELGVAAHWKYKEGAAAGGARSGHEDRIAWLRKLIAWQEEMADSGEMLDE
